For the assay, the target named is FGFR2 (cell binding assays) (UniProt P21802). Description: ligand binding assay on intact cells.

Sequences of proteins named here, by UniProt entry; tags and fusion partners are left off. Residues count along the entry.
UniProt P21802, residues 22-821: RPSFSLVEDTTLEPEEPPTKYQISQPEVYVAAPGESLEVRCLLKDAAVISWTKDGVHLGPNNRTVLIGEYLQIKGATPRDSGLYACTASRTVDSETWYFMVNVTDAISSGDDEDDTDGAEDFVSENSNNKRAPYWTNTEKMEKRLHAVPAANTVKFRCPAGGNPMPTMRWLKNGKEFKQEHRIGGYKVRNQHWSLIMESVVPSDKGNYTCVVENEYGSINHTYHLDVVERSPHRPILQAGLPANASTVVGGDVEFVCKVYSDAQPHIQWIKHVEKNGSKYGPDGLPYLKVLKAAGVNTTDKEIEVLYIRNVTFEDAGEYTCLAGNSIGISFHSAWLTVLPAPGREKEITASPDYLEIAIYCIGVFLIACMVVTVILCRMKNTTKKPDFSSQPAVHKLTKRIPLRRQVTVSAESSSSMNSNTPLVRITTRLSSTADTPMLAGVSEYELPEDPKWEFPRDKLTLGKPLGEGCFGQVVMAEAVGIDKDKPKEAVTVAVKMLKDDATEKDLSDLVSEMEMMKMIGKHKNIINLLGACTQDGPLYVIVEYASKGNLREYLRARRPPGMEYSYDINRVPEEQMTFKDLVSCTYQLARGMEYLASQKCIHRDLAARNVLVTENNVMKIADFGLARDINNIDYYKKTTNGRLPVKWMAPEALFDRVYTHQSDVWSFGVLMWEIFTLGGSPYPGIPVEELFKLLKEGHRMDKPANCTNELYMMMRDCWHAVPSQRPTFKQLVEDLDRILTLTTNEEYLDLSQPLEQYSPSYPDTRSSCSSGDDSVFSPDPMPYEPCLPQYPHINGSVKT

Results are given in words; binding and its absence hold for the method and conditions named. Some binding calls cover weakened binding; strength is not graded here.

B1: FGF4 (ligand, UniProt P08620 54-206, looked up)
chain: SLARLPVAAQPKEAAVQSGAGDYLLGIKRLRRLYCNVGIGFHLQALPDGRIGGAHADTRDSLLELSPVERGVVSIFGVASRFFVAMSSKGKLYGSPFFTDECTFKEILLPNNYNAYESYKYPGMFIALSKNGKTKKGNRVSPTMKVTHFLPRL
With B1, the binding entry is listed as “binds”.

For the origin of these results see patent publication US20120094864A1.
